# Literature values in PMC5087393, “A Toolbox of Genetically Encoded FRET-Based Biosensors for Rapid L-Lysine Analysis” (Sensors (Basel, Switzerland), 2016).
# System: LAO-binding protein of E. coli
# Conditions: read-out: Kd (equilibrium dialysis); without permutation and fluorescent proteins; 10 mM KPi buffer, pH 7.0, 50 mM NaCl
smiles,measurement,value
NCCC[C@H](N)C(=O)O [ornithine],Kd,5 µM
